# Literature values in patent US20210137913A1, “THERAPEUTIC AGENT FOR ASPIRATION PNEUMONIA, LUNG SUPPURATION, OR LUNG ABSCESS” (KYORIN PHARMACEUTICAL CO., LTD., priority 2017, published 2021).
# At least one compound was matched to its structure with a doubt left.
# Test system: anaerobic bacteria
# Settings: Non Patent Literature 2; cited from earlier work
smiles,measurement,value
C[C@H]1COc2c(N3CCN(C)CC3)c(F)cc3c(=O)c(C(=O)O)cn1c23 [levofloxacin],antibacterial activity against anaerobic bacteria (in words),insufficient antibacterial activity
